PMC3225368, “A Conformational Switch in the Active Site of BT_2972, a Methyltransferase from an Antibiotic Resistant Pathogen B. thetaiotaomicron” (PLoS ONE, 2011)
These are yes or no findings as the source states them, for the method shown.

Molecular target: BT_2972, AdoMet-dependent methyltransferase from Bacteroides thetaiotaomicron VPI-5482 (Bacteroides thetaiotaomicron VPI-5482) (UniProt Q8A3I2)
Test: SEC + other: dynamic light scattering; gel filtration in Tris-HCl (pH 8.0), 200 mM NaCl; dynamic light scattering of the purified protein; both purified

- binding: no binding
B1: BT_2972, AdoMet-dependent methyltransferase from Bacteroides thetaiotaomicron VPI-5482 (enzyme, UniProt Q8A3I2 1-257)
chain: MSNNNTSIHDFDFSFICNYFKLLKRQGPGSPEATRKAVSFINELTDDAKIADIGCGTGGQTLFLADYVKGQITGIDLFPDFIEIFNENAVKANCADRVKGITGSMDNLPFQNEELDLIWSEGAIYNIGFERGMNEWSKYLKKGGFIAVSEASWFTSERPAEIEDFWMDAYPEISVIPTCIDKMERAGYTPTAHFILPENCWTEHYFAPQDEVRETFMKEHAGNKTAMDFMKGQQYERSLYSKYKDYYGYVFYIGQKR
